PubChem BioAssay AID1259425 | University of Nebraska Medical Center | 2018

Aim: 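Seek colon cancer weak points whose silencing resembles KSR1 loss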 (primary screen)
Cells: HCT116 human colon cancer cells
Reagent: siRNA pool against human genes, 50 nM siRNA
Detection: 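mRNA of six signature genes measured together by branched-DNA assay after 50 nM siRNA pool, blank removed, divided by geometric mean of two housekeeping genes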
Scale: BNIP3L mRNA: higher = more BNIP3L transcript after knockdown; NDRG1 mRNA: higher = more NDRG1 transcript after knockdown; BNIP3 mRNA: higher = more BNIP3 transcript after knockdown; ALDOC mRNA: higher = more ALDOC transcript after knockdown; ACSL5 mRNA: higher = more ACSL5 transcript after knockdown
In all, the deposit lists about 14,000 reagents; this is a random part of them. Not given: the time to read-out.

Gene	BNIP3L mRNA, set 1	NDRG1 mRNA, set 1	BNIP3 mRNA, set 1	ALDOC mRNA, set 1	ACSL5 mRNA, set 1
ZNF195 (zinc finger protein 195)	0.123	0.0916	0.353	0.0162	0.126
CCL19 (C-C motif chemokine ligand 19)	0.061	0.0889	0.235	0.0173	0.0771
CARF (calcium responsive transcription factor)	0.103	0.078	0.3	0.024	0.229
IKZF5 (IKAROS family zinc finger 5)	0.084	0.573	0.24	0.0188	0.349
KRT6B (keratin 6B)	0.093	0.113	0.279	0.0292	0.0884
STAT6 (signal transducer and activator of transcription 6)	0.099	0.632	0.397	0.0791	0.268
APEH (acylaminoacyl-peptide hydrolase)	0.1	0.0754	0.268	0.0303	0.111
ARFIP2 (ARF interacting protein 2)	0.161	0.114	0.253	0.00785	0.203
SLC49A3	0.222	0.191	0.305	0.082	0.251
GALNT17 (polypeptide N-acetylgalactosaminyltransferase 17)	0.0638	0.0797	0.263	0.0125	0.115
OXCT2 (3-oxoacid CoA-transferase 2)	0.0635	0.146	0.226	0.021	0.131
LAMP3 (lysosome associated membrane protein 3)	0.107	0.136	0.296	0.0141	0.264
ZNF658 (zinc finger protein 658)	0.125	0.314	0.451	0.056	0.0684
LINC00597 (long independently transcribed non-coding RNA 597)	0.0892	0.155	0.272	0.00173	0.111
PGBD3 (piggyBac transposable element derived 3)	0.158	0.263	0.359	0.0519	0.23
GIPC1 (GIPC PDZ domain containing family member 1)	0.152	0.167	0.251	0.039	0.0782
UNC13A (unc-13 homolog A)	0.12	0.519	0.294	0.00828	0.342
ATP10B (ATPase phospholipid transporting 10B (putative))	0.156	0.206	0.354	0.037	0.218
GGT7 (gamma-glutamyltransferase 7)	0.101	0.103	0.235	0.0334	0.0897
VANGL1 (VANGL planar cell polarity protein 1)	0.125	0.162	0.29	0.0655	0.181

An excerpt from above, reduced to “NDRG1 mRNA, set 1”:
OXCT2 (3-oxoacid CoA-transferase 2) = 0.146
LAMP3 (lysosome associated membrane protein 3) = 0.136
